In PubChem BioAssay AID504834 (National Center for Advancing Translational Sciences (NCATS), 2011):
About 22,000 (6.9%) of roughly 320,000 compounds were called active. This list was built around the results that the source calls inconclusive (neither active nor inactive); the mix of calls is not that of the screen. Calls come from the whole dose curve; as a rule, active = well fitted inhibition curve with a large enough effect; inconclusive = small, poorly fitted or top-dose-only effect, or another doubt; inactive = no such curve, though single readings can be large or run the other way. Where the call is inconclusive, the potency comes from a doubtful curve fit.

test: Primary qHTS for delayed death inhibitors of the malarial parasite plastid, 96 hour incubation; details: P. falciparum luciferase reporter growth; series mostly up to 28.7 µM; activity change, negative = inhibition: at the top concentration
Procedure, shortened: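 Infected RBCs, 2% Hct / 0.05% parasitemia final; luciferase-reporter P. falciparum; cpd 96 h, 37 C, 5% CO2; luciferase detection reagent; luminescence.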
% is set by controls: 0 for no effect and ±100 for the full control effect; potency is the fitted concentration of half-maximal effect.

SMILES | Potency | activity change, negative = inhibition
CN(CC(=O)Nc1ccc(N2CCOCC2)cc1)C(=O)c1cc(F)c(F)cc1Cl | inconclusive: 20.8 µM [inhibitor, partial curve, poor fit] | –
O=C(CSc1cc(Cl)ccc1Cl)NCCCn1ccnc1 | inconclusive: 10.4 µM [inhibitor, single point] | –
CCc1cc2c(-c3ccccc3)cc(=O)oc2cc1OC(C)C(=O)O (stereo not given) | inconclusive: 20.8 µM [inhibitor, partial curve, poor fit] | –
COc1cc(OC)cc(C(=O)NNC(=S)NCc2ccco2)c1 | inconclusive: 10.4 µM [inhibitor, partial curve, poor fit] | –
NC(=O)CCC(NC(=O)c1ccc(Cl)cc1)C(=O)NCCc1ccc2c(c1)OCCO2 (stereo not given) | – | inactive: 24.8%
Fc1ccc(Nc2ncnc3sccc23)cc1 | – | inactive: 27.6%
COC(=O)CN(c1ccc(C)c(Cl)c1)S(C)(=O)=O | – | inactive: 4.66%
CCOC(=O)N1CCN(C(=O)c2cc3c(=O)n4ccccc4nc3s2)CC1 | inconclusive: 3.7 µM [inhibitor, partial curve] | –
CC(C)(C)C(=O)NC1CC2CCCC(C1)N2C(=O)Nc1ccccc1Cl (stereo not given) | inconclusive: 4.65 µM [inhibitor, partial curve] | –
O=C(NCc1nc2ccccc2[nH]1)C1=C[C@@H](C2CCCCC2)C[C@@H](OCCCCO)O1 | inconclusive: 1.85 µM [inhibitor, full curve] | –
Cc1occc1-c1nnc(SCC(=O)NCCc2ccccc2)n1Cc1ccccc1 | inconclusive: 6.57 µM [inhibitor, partial curve] | –
CCOC(=O)NC(=O)COC(=O)CNC(=O)c1ccc(OCC)c(OCC)c1 | – | inactive: 0%
CCOC(=O)N/N=C(\C)c1cccs1 | inconclusive: 10.4 µM [inhibitor, partial curve] | –
Nc1nc(SCC(=O)NC2CCCCC2)[nH]c(=O)c1-c1ccccc1 | inconclusive: 0.294 µM [inhibitor, full curve] | –
O=C(N/N=C/c1ccccn1)c1cc(-c2ccccc2)nc2ccccc12 | active: 13.1 µM | –
Cc1cccnc1N(C(=O)Nc1cccc(Cl)c1)C1=NCC(C)(C)S1 | inconclusive: 4.65 µM [inhibitor, partial curve, poor fit] | –
COC(=O)c1ccc(C2C(C(=O)c3ccco3)=C(O)C(=O)N2c2cc(C)on2)cc1 (stereo not given) | inconclusive: 18.5 µM [inhibitor, single point] | –
Cc1ccc(C(=O)N/C(=C\c2cccs2)c2nc3ccccc3[nH]2)cc1 | inconclusive: 10.4 µM [inhibitor, single point] | –
Cc1cc(C)cc(-n2c(C)cc(/C=C3\C(=O)NC(=O)N(C)C3=O)c2C)c1 | – | inactive: 65.6%
COc1ccc(C)cc1NS(=O)(=O)c1ccc2c(c1)NC(=O)C(C)S2 (stereo not given) | – | inactive: 53.8%
CCOc1ccc(S(=O)(=O)NC2=NCCCCC2)cc1 | – | inactive: -25.3%
CCn1c(CNC(=O)C23CC4CC(CC(C4)C2)C3)nnc1SC | inconclusive: 9.28 µM [inhibitor, partial curve, poor fit] | –

SMILES | Potency | activity change, negative = inhibition
O=S(=O)(c1ccc(OCC(O)CNC23CC4CC(CC(C4)C2)C3)c(Cl)c1)N1CCOCC1 (stereo not given) | inconclusive: 0.415 µM [inhibitor, full curve, poor fit] | –
Cc1ccc2nc(-c3cccc(NC(=O)c4ccc5c(c4)OCCO5)c3)oc2c1 | – | inactive: 5.86%
O=C(CSc1ccc2ccccc2n1)N/N=C/c1ccc(O)cc1 | inconclusive: 0.0117 µM [inhibitor, full curve, poor fit] | –
COc1ccc(NC(=O)c2sc(N3CCOCC3)nc2-c2ccccc2)c(OC)c1 | inconclusive: 10.4 µM [inhibitor, single point] | –
COc1ccc(C(=O)NCCN2CCOCC2)c(OC)c1 | inconclusive: 2.33 µM [inhibitor, full curve, poor fit] | –
Cc1ccc(C(=O)NCc2ccco2)cc1S(=O)(=O)N1CCCCC1 | active: 2.33 µM | –
Cc1cc(NS(=O)(=O)c2ccc(NC(=O)c3cc4cc(Br)ccc4oc3=O)cc2)no1 | – | inactive: 0.906%
Cc1ccc(C(C(=O)NC2CCCC2)N(C(=O)CNC(=O)c2cccs2)c2cccnc2)o1 (stereo not given) | inconclusive: 10.4 µM [inhibitor, single point] | –
O=C(Cc1cn(Cc2cccc(Cl)c2)c2ccccc12)N1CCCCCC1 | inconclusive: 11.7 µM [inhibitor, single point] | –
CCOC(=O)c1sc(NC(=O)c2ccc(S(=O)(=O)N(CC)CC)cc2)nc1C | inconclusive: 0.131 µM [inhibitor, full curve] | –
CCOc1ccc(N(C)S(=O)(=O)c2ccc(C)c(C(=O)NCCc3ccc(OC)cc3)c2)cc1 | inconclusive: 16.5 µM [inhibitor, partial curve, poor fit] | –
Cc1onc(-c2ccccc2)c1-c1csc(N/N=C/c2ccccc2)n1 | inconclusive: 18.5 µM [inhibitor, single point] | –
Cc1cc(CN(C)C(=O)C2CCC(=O)N(CCc3cccc(F)c3)C2)on1 (stereo not given) | inconclusive: 11.7 µM [inhibitor, single point] | –
O=C(CCCOc1ccccc1)Nc1cc(S(=O)(=O)N2CCOCC2)ccc1N1CCOCC1 | inconclusive: 18.5 µM [inhibitor, single point] | –
Nc1nc(CSc2ncn(-c3ccccc3)n2)cs1 | – | inactive: 23.2%
COc1ncnc2c1sc1nc(-c3ccccc3)c3c(c12)CCCC3 | inconclusive: 18.5 µM [inhibitor, single point] | –
COc1cc(O)c(CCC(=O)c2cc(OC)c(OC)c(OC)c2)c(OC)c1 | inconclusive: 10.4 µM [inhibitor, single point] | –
O=C(Nc1cc(C(F)(F)F)ccc1-n1cncn1)c1ccc(-c2ccccc2)cc1 | inconclusive: 4.65 µM [inhibitor, single point] | –
COc1ccc(CN2C[C@H](Cc3ccccc3)[C@@H](CC(=O)Nc3ccccc3)C2=O)cc1 | inconclusive: 6.57 µM [inhibitor, partial curve, poor fit] | –
O=C(Cc1ccccc1)NCC(=O)OCC(=O)c1ccc(Cl)c([N+](=O)[O-])c1 | inconclusive: 16.5 µM [inhibitor, single point] | –
CCOc1ccc(NS(=O)(=O)c2cc(C(=O)NCCCN3CCCC3=O)ccc2C)cc1 | inconclusive: 8.28 µM [inhibitor, partial curve, poor fit] | –
COC(=O)Cn1c(=O)c2c(nc3n2CCCN3CCc2ccc(OC)c(OC)c2)n(C)c1=O | inconclusive: 14.7 µM [inhibitor, partial curve, poor fit] | –

Looked up by structure from the list above (four):
SMILES | Potency | activity change, negative = inhibition
CCn1c(CNC(=O)C23CC4CC(CC(C4)C2)C3)nnc1SC | inconclusive: 9.28 µM [inhibitor, partial curve, poor fit] | –
O=C(Cc1cn(Cc2cccc(Cl)c2)c2ccccc12)N1CCCCCC1 | inconclusive: 11.7 µM [inhibitor, single point] | –
COc1ccc(CN2C[C@H](Cc3ccccc3)[C@@H](CC(=O)Nc3ccccc3)C2=O)cc1 | inconclusive: 6.57 µM [inhibitor, partial curve, poor fit] | –
COc1cc(OC)cc(C(=O)NNC(=S)NCc2ccco2)c1 | inconclusive: 10.4 µM [inhibitor, partial curve, poor fit] | –

The list continues:

SMILES | Potency | activity change, negative = inhibition
O=C(NC(=S)NCCC1=CCCCC1)c1ccccc1Br | inconclusive: 9.28 µM [inhibitor, single point] | –
O=C(Cn1ccc(NC(=O)OCc2ccccc2)nc1=O)NCc1nc2ccccc2[nH]1 | inconclusive: 18.5 µM [inhibitor, single point] | –
CCCN(Cc1nnc(-c2ccccc2Cl)o1)C(=O)COc1ccc(Cl)cc1 | inconclusive: 10.4 µM [inhibitor, single point] | –
COc1ccc(OCCC(=O)NCC23CC4CC(CC(C4)C2)C3)cc1 | – | inactive: 6.08% [at 5.75 µM]
COc1ccccc1-c1nnc(NC(=O)CCS(=O)(=O)c2ccccc2)o1 | inconclusive: 18.5 µM [inhibitor, single point] | –
CCN(c1cccc(C)c1)S(=O)(=O)c1csc(C(N)=O)c1 | – | inactive: 8.89%
Cc1ccc(NS(=O)(=O)c2ccc(Cl)c(NC(=S)NC(=O)C3CCCCC3)c2)cc1Cl | inconclusive: 5.22 µM [inhibitor, partial curve, poor fit] | –
CC(NC(=O)Nc1nnc(C(F)(F)F)s1)N1C(=O)C2C3C=CC(C3)C2C1=O (stereo not given) | – | inactive: 0%
FC(F)Oc1ccc(NC(=S)N2CCc3ccccc32)cc1 | – | inactive: 53.6%
O=C(/C=C/c1ccccc1)N1CCN(S(=O)(=O)c2ccc(F)cc2)CC1 | – | inactive: 14.8%
CC(C)Cn1c(SCC(=O)Nc2cccc(S(N)(=O)=O)c2)nc2ccccc2c1=O | inconclusive: 13.1 µM [inhibitor, single point] | –
O=C(Nc1cccnc1)c1ccc(Cl)c(S(=O)(=O)N2CCCC2)c1 | – | inactive: 24.2%
CS(=O)(=O)N(CC(=O)NC1CCCC1)C1CCCCC1 | inconclusive: 14.7 µM [inhibitor, single point] | –
C=CCn1c(O)c(C(CC)=NCc2cccnc2)c(=O)[nH]c1=O | inconclusive: 4.15 µM [inhibitor, single point] | –
CC(=O)Nc1ccc(S(=O)(=O)NNC2=NS(=O)(=O)c3ccccc32)cc1 | inconclusive: 18.5 µM [inhibitor, single point] | –
CC1(C)Cc2c(C#N)c(N3CCN(C(=O)c4ccccc4)CC3)nc(-c3ccco3)c2CS1 | inconclusive: 9.28 µM [inhibitor, partial curve] | –
O=C(Nc1nnc(Cc2ccccc2F)s1)Nc1ccccc1F | inconclusive: 18.5 µM [inhibitor, single point] | –
O=C(Nc1cccc(C(F)(F)F)c1)C1CCCO1 (stereo not given) | inconclusive: 10.4 µM [inhibitor, single point] | –
C=C(C)COc1ccc(-c2[nH]ncc2Oc2ccc(OC)cc2)c(O)c1 | inconclusive: 10.4 µM [inhibitor, single point] | –
Nc1ccc(C(=O)Nc2ccc(OC(F)(F)C(F)F)c(NC(=O)c3ccc(N)cc3)c2)cc1 | inconclusive: 10.4 µM [inhibitor, partial curve, poor fit] | –
Cc1ccccc1NC(=O)CCl | inconclusive: 2.94 µM [inhibitor, partial curve] | –
